Measured values from article PMC9915769, “A novel binding site on the cryptic intervening domain is a motif-dependent regulator of O-GlcNAc transferase” (Research Square, 2023).
Results are given in words; binding and its absence hold for the method and conditions named. In cells and extracts the contact can be indirect. Binding calls can cover weak binding; strength is not graded here. Tags and fused reporters may be left off the sequences shown.

Amino acid sequences for entries named in this document (tags omitted). A change or cut given only in a name is not applied to a line headed by its entry.
UniProt O15294: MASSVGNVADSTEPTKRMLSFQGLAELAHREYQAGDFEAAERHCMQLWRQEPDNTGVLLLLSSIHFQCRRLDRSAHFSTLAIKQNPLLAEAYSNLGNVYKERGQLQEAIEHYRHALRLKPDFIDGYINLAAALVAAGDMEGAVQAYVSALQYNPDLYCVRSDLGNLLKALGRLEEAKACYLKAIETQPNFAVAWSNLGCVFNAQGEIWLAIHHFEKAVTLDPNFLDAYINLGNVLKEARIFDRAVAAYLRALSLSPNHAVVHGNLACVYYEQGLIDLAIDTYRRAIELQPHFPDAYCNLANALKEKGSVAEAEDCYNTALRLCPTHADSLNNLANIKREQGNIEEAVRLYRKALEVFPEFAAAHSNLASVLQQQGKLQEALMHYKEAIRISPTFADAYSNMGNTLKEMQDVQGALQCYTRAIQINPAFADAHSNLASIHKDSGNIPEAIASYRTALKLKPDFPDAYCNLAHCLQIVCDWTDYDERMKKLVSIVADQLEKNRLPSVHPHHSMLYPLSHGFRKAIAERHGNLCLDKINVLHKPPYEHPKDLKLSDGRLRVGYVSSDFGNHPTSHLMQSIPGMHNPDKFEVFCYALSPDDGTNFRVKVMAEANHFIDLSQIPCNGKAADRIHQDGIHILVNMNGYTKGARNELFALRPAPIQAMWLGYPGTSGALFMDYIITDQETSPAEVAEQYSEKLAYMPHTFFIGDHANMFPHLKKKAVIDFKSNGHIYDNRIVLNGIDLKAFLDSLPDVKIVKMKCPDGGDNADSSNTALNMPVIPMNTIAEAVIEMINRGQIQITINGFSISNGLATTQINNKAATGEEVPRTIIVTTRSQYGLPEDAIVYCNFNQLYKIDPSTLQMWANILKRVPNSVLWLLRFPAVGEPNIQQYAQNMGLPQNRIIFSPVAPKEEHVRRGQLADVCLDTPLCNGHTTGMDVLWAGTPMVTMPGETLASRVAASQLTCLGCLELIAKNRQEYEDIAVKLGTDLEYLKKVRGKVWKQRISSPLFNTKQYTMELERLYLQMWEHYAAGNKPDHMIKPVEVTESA

Assays:
Assay in all cases: co-IP; HEK293 cells (legend: TRex-293) co-transfected with Flag-OGT and cMyc-SMG9 constructs; lysate (150 mM NaCl, 1% NP-40, 20 mM Tris-HCl pH 7.4) on Flag M2 agarose 16 h at 4 C; western blot
[1] = molecular target: Flag-tagged OGT I734R, mammalian expression (human)
[2] = molecular target: double mutant OGT (I787E-N791A), mammalian expression (human)
[3] = molecular target: Flag-tagged OGT I787E, mammalian expression (human) (UniProt O15294)
[4] = molecular target: Flag-tagged OGT N791A, mammalian expression (human)

binding [1]: binds | binding [2]: binds | binding [3]: binds | binding [4]: binds
B1: cMyc-tagged SMG9 (wild type) (protein, UniProt Q9H0W8 1-520)
chain: MSESGHSQPGLYGIERRRRWKEPGSGGPQNLSGPGGRERDYIAPWERERRDASEETSTSVMQKTPIILSKPPAERSKQPPPPTAPAAPPAPAPLEKPIVLMKPREEGKGPVAVTGASTPEGTAPPPPAAPAPPKGEKEGQRPTQPVYQIQNRGMGTAAPAAMDPVVGQAKLLPPERMKHSIKLVDDQMNWCDSAIEYLLDQTDVLVVGVLGLQGTGKSMVMSLLSANTPEEDQRTYVFRAQSAEMKERGGNQTSGIDFFITQERIVFLDTQPILSPSILDHLINNDRKLPPEYNLPHTYVEMQSLQIAAFLFTVCHVVIVVQDWFTDLSLYRFLQTAEMVKPSTPSPSHESSSSSGSDEGTEYYPHLVFLQNKARREDFCPRKLRQMHLMIDQLMAHSHLRYKGTLSMLQCNVFPGLPPDFLDSEVNLFLVPFMDSEAESENPPRAGPGSSPLFSLLPGYRGHPSFQSLVSKLRSQVMSMARPQLSHTILTEKNWFHYAARIWDGVRKSSALAEYSRLLA
